Reference: US11345676B2, “Apoptosis signal-regulating kinase 1 (ASK 1) inhibitor compounds” (PHARMAKEA, INC., priority 2017, dated 2022)
The match of structure and compound is tentative.

Chains of the proteins cited; added tags and fusions are not shown. Residues count along the entry.
UniProt Q99683, 649-946 limits assumed: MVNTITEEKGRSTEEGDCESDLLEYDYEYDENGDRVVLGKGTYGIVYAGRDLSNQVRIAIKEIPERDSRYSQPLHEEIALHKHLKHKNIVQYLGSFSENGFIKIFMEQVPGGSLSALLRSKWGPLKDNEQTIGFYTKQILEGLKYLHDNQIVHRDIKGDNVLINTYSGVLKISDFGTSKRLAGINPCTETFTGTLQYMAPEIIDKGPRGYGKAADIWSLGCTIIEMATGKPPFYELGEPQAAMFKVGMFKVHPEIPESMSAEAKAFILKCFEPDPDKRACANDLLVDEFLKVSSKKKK

Target: ASK1 (Homo sapiens (Human), UniProt Q99683)
Assay: Human ASK1 ADP-Glo kinase assay
Conditions: recombinant ASK1 (amino acids 649-946), 50 μM ATP, MBP substrate, tested form: HCl
Protocol: Example B-1: Human ASK1 ADP-Glo Assay
The ability of test compounds to inhibit ASK1 kinase activity was determined using the luminescent ADP-Glo™ Kinase Assay and Myelin Basic Protein (MBP) as a substrate (Promega Corporation, Madison, Wis.). During the kinase reaction, ASK1 utilizes ATP and generates ADP. The remaining ATP is then depleted by addition of the ADP-Glo™ reagent which also terminates the reaction. Subsequent addition of the Kinase Detection Reagent converts the ADP that was produced during the kinase reaction to ATP, and this newly synthesized ATP is converted to light using the luciferase/luciferin reactions. The assay was performed according to the manufacturer's instructions. […] Following the addition of the Kinase Detection Reagent, the plate was incubated for an additional 40 min at room temperature before reading luminescence on a FlexStation 3 (Molecular Devices, Sunnyvale, Calif.). Maximum activity was determined from wells treated with vehicle and was set to 100% and minimum activity was determined from wells containing no enzyme and this was set to 0%. Percent inhibition was calculated relative to the controls and the data graphed in Collaborative Drug Discovery (CDD) Vault (Burlingame, Calif.).

## O=C(Nc1ccc(F)c(C(=O)Nc2cccc(-c3nncn3C3CC3)n2)c1)c1ccccc1
  IC50: < 300 nM
